These are yes or no findings as the source states them, for the method shown. In cells and extracts the contact can be indirect. Some entries that bind do so weakly or less than the wild type.
B1: CT45A1 (protein, UniProt Q5HYN5 1-189)
chain: MTDKTEKVAVDPETVFKRPRECDSPSYQKRQRMALLARKQGAGDSLIAGSAMSKAKKLMTGHAIPPSQLDSQIDDFTGFSKDRMMQKPGSNAPVGGNVTSSFSGDDLECRETASSPKSQREINADIKRKLVKELRCVGQKYEKIFEMLEGVQGPTAVRKRFFESIIKEAARCMRRDFVKHLKKKLKRMI

Protein sequences, listed by entry. Tags and fused reporters are not part of them.
UniProt P35222: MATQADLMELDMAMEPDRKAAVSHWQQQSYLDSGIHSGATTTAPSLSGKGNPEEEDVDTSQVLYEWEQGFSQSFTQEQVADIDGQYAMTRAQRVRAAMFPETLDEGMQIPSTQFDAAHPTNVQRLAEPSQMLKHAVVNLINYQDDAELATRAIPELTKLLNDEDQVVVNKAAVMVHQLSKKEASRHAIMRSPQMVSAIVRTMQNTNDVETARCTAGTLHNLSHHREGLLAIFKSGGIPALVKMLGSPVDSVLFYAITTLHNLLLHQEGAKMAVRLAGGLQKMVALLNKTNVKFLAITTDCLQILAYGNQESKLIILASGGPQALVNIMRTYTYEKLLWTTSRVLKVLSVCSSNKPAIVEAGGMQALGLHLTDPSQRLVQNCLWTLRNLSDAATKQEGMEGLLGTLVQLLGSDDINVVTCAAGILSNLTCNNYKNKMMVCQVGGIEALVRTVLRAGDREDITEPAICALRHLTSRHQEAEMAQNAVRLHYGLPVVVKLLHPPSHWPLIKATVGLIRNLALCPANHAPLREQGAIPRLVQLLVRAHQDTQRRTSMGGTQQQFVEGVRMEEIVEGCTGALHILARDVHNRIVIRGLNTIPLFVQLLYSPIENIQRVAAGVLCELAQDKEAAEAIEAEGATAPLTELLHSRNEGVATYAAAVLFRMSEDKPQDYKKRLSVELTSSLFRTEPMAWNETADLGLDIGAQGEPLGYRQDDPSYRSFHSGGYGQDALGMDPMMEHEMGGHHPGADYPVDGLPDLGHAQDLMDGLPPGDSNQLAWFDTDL
UniProt Q9NQB0: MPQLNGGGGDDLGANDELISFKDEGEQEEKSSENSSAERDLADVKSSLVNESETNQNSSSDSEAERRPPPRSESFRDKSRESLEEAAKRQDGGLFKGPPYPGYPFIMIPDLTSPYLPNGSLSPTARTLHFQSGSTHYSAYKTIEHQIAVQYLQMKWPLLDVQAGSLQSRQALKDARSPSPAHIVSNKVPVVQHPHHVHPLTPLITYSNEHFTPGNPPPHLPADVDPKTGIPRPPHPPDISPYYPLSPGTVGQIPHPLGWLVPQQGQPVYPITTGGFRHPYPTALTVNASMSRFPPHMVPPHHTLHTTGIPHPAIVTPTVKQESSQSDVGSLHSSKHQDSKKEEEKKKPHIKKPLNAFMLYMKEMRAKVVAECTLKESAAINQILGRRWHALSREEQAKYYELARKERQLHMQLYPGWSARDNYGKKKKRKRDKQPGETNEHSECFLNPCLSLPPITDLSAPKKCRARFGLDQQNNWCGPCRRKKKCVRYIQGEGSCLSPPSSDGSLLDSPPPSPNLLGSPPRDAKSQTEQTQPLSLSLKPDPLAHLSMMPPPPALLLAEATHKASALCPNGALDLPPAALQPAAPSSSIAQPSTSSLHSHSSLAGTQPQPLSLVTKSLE

Assays:
CT45A1 [1] = biological target: T1, CT45A1 (UniProt Q5HYN5); experiment: co-IP; Co-IP with anti-CT45A1 antibody (Fig. 6F); in nucleus
T1 sequence: B1 chain

CT45A1 [2] = biological target: T1, CT45A1; experiment: co-IP; Co-IP in nuclear extract (Fig. 6C, D); precipitating antibody and cells not stated
flag-β-catenin = flag-β-catenin (UniProt P35222); experiment: co-IP; Co-IP with anti-flag antibody (flag-β-catenin), under CT45A1 overexpression (Fig. 6E); in nucleus

Molecule | binding (CT45A1 [1]) | binding (CT45A1 [2]) | binding (flag-β-catenin)
β-catenin (from UniProt P35222 1-781) | binds | binds | 
TCF4 (from UniProt Q9NQB0 1-619) | binds | binds | 
B1 |  |  | binds

— paper PMC8233386
